According to patent publication US11518747B2, “Solid forms of an N-terminal domain androgen receptor inhibitor and uses thereof” (ESSA Pharma, Inc., priority 2020, dated 2022):

Tested on: LNCaP cells
Assay: Cell proliferation/viability, Alamar blue, AR specific proliferation with or without 0.1 nM R1881
Format: cell-based
Conditions: Homo sapiens, read-out: Cellular Proliferation/Viability IC50
Protocol: In LNCaP cells, AR specific proliferation is calculated by measuring the difference between control cells treated with or without 0.1 nM R1881.

- IC50: 350 nM
SMILES: CNC(=O)c1ccc(N2C(=S)N(c3ccc(C#N)c(C(F)(F)F)c3)C(=O)C2(C)C)cc1F [Enzalutamide]
